Legend:
Experiment in all cases: biochemical
[1] = target: p21-activated kinase 4 (PAK4) (Mus musculus, UniProt Q8BTW9)
Cyclin-T1 (CCNT1) = Cyclin-T1 (CCNT1) (Mus musculus, UniProt Q9QWV9)
[2] = target: Cyclin-dependent kinase 9 (CDK9) (Mus musculus, UniProt Q99J95)
[3] = target: Casein kinase I isoform delta (CSNK1D) (Mus musculus, UniProt Q9DC28)
[4] = target: Casein kinase I isoform epsilon (CSNK1E) (Mus musculus, UniProt Q9JMK2)
[5] = target: p21-activated kinase 5 (PAK5) (Mus musculus, UniProt Q8C015)
[6] = target: Casein kinase I isoform alpha (CSNK1A1) (Mus musculus, UniProt Q8BK63)
[7] = target: 1-phosphatidylinositol-5-phosphate 4-kinase 2-alpha (PIP4K2A) (Mus musculus, UniProt O70172)
[8] = target: 90 kDa ribosomal protein S6 kinase 2 (p90RSK2) (Mus musculus, UniProt Q9WUT3)
[9] = target: 90 kDa ribosomal protein S6 kinase 4 (MSK2) (Mus musculus, UniProt Q9Z2B9)
[10] = target: 1-phosphatidylinositol-5-phosphate 4-kinase 2-beta (PIP4K2B) (Mus musculus, UniProt Q80XI4)
[11] = target: 90 kDa ribosomal protein S6 kinase 1 (p90RSK1) (Mus musculus, UniProt P18653)
[12] = target: 90 kDa ribosomal protein S6 kinase 3 (p90RSK3) (Mus musculus, UniProt P18654)
[13] = target: Focal adhesion kinase 1 (FAK) (Mus musculus, UniProt P34152)
[14] = target: Phosphatidylinositol-5-phosphate 4-kinase type II gamma (PIP4K2C) (Mus musculus, UniProt Q91XU3)
[15] = target: Proline-rich tyrosine kinase 2 (PYK2) (Mus musculus, UniProt Q9QVP9)
[16] = target: Extracellular signal-regulated kinase 1 (ERK1) (Mus musculus, UniProt Q63844)

The chains behind the UniProt entries cited, without tags or fusion partners. Where a name states a change or a piece, a line headed by the entry shows the natural chain unless it says otherwise.
UniProt Q99J95, whole entry partner: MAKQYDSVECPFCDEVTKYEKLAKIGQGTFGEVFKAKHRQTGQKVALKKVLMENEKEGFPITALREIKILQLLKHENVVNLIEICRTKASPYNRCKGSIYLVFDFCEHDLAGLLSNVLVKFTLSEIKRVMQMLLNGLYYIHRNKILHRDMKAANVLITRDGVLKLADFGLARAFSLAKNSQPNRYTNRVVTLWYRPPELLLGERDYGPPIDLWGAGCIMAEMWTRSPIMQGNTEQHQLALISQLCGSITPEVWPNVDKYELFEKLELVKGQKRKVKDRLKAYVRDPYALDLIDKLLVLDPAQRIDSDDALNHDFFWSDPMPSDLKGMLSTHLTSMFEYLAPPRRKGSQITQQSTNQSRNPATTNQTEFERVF
UniProt Q9DC28: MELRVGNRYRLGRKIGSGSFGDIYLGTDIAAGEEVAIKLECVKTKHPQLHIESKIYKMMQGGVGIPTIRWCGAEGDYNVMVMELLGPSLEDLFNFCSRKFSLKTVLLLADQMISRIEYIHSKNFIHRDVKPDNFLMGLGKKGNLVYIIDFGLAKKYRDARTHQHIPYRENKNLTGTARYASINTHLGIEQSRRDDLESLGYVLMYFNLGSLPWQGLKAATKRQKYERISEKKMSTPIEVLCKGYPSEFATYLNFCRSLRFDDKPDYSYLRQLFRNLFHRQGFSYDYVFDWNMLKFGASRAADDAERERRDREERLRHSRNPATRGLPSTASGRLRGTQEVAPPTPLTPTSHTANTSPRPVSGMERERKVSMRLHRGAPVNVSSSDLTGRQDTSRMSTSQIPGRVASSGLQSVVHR
UniProt Q9JMK2: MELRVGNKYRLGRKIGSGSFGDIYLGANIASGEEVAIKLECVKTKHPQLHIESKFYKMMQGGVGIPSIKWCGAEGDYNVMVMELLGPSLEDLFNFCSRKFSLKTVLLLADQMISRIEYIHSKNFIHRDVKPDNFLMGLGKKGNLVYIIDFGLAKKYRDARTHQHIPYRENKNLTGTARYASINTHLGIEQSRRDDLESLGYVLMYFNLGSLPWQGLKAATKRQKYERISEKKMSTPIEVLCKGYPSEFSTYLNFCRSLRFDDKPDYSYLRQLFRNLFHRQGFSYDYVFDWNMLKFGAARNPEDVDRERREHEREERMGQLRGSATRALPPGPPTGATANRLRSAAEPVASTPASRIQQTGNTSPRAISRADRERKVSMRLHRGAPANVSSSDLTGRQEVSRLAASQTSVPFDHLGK
UniProt Q8C015: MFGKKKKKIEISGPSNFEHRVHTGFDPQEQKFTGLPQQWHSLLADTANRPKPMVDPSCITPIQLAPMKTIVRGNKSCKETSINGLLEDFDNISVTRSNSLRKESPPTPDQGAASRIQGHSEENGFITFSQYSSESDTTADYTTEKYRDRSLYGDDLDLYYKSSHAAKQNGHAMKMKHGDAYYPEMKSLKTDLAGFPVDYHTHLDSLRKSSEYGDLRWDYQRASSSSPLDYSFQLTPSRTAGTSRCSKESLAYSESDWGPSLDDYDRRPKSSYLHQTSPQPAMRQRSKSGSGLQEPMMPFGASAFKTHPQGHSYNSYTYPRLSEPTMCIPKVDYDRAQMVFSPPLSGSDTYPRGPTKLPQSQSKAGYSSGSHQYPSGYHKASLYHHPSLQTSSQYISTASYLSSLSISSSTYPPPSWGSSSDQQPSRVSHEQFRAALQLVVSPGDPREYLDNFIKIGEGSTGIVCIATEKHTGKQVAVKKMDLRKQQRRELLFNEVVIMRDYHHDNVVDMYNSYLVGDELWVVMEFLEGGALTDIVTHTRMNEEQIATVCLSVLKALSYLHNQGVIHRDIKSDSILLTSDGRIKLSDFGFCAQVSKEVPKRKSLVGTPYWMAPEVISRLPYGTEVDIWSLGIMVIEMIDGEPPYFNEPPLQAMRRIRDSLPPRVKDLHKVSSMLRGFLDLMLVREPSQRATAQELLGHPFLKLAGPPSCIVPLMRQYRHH
UniProt O70172: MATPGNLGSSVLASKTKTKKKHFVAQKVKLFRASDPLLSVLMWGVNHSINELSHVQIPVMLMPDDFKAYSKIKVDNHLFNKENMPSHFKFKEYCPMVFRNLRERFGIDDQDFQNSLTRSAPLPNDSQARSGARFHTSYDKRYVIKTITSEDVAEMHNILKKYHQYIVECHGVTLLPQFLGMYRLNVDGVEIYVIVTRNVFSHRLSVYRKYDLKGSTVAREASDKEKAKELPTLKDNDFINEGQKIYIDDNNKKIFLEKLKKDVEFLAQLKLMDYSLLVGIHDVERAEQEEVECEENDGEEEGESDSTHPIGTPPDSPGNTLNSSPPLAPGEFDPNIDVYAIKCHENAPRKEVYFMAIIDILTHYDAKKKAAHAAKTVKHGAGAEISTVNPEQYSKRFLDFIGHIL
UniProt Q9WUT3, whole entry: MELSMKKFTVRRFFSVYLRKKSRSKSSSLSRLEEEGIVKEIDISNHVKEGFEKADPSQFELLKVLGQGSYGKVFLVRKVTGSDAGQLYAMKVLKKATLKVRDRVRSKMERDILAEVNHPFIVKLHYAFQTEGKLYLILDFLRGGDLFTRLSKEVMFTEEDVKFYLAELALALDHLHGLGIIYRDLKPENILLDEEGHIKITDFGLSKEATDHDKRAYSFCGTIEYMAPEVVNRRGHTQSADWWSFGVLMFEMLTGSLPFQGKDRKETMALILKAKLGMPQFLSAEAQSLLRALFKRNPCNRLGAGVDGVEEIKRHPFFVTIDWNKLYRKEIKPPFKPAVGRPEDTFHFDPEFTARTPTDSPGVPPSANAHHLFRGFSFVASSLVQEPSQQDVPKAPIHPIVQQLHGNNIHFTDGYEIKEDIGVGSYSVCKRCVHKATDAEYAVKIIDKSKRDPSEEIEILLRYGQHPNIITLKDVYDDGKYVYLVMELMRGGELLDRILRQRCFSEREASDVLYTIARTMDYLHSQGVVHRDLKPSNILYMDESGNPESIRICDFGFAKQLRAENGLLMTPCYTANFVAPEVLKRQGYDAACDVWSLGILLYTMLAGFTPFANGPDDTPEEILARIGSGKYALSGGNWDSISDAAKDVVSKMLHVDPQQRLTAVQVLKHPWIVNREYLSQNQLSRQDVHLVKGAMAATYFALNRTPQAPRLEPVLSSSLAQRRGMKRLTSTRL
UniProt P18653, whole entry: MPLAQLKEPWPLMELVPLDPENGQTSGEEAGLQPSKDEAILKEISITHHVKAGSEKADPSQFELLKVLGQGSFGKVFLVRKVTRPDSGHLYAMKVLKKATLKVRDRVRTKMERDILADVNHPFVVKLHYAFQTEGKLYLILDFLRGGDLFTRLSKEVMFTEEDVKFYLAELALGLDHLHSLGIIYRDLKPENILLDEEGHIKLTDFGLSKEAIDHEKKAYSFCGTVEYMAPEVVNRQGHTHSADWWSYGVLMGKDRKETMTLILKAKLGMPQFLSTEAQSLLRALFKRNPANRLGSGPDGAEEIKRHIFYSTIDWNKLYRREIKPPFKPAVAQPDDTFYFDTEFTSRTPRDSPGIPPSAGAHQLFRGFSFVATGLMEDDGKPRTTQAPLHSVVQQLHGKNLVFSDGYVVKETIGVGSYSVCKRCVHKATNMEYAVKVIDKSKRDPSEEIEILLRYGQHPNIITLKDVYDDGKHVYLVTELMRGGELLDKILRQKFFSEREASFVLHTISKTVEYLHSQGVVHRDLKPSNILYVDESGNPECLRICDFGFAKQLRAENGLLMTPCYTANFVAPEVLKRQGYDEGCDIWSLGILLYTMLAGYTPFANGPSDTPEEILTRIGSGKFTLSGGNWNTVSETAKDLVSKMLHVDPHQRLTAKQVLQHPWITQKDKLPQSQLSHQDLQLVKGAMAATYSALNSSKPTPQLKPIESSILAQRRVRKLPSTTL
UniProt P18654, whole entry: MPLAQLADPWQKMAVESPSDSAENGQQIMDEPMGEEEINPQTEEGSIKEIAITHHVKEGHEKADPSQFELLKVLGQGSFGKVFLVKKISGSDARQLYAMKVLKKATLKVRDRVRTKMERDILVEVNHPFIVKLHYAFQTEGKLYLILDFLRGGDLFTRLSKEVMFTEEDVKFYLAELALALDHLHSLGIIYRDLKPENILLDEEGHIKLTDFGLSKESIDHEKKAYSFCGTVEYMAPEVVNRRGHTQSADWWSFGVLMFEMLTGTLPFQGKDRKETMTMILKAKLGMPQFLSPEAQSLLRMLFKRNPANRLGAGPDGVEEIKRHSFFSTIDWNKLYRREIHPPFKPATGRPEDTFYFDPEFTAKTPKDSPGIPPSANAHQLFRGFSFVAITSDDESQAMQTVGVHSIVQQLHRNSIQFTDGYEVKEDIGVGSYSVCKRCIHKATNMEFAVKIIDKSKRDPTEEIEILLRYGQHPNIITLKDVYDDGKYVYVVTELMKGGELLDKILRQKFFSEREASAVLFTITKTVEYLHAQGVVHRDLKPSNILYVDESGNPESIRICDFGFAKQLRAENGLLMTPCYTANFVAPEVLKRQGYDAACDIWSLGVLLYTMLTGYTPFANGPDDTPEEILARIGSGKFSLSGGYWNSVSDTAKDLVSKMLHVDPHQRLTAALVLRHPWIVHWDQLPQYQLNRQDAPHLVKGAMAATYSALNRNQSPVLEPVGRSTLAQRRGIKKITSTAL
UniProt Q91XU3: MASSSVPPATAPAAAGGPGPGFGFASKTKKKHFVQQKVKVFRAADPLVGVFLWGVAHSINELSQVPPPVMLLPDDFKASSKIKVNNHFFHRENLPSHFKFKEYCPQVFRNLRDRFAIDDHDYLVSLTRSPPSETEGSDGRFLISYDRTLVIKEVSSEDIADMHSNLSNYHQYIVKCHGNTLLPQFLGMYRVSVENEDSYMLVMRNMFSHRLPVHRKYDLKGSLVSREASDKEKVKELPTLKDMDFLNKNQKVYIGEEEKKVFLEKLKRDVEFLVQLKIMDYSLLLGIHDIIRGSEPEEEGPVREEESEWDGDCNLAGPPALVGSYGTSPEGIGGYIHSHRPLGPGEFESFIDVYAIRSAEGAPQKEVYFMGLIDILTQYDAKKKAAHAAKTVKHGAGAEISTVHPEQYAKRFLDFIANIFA
UniProt Q9QVP9, whole entry: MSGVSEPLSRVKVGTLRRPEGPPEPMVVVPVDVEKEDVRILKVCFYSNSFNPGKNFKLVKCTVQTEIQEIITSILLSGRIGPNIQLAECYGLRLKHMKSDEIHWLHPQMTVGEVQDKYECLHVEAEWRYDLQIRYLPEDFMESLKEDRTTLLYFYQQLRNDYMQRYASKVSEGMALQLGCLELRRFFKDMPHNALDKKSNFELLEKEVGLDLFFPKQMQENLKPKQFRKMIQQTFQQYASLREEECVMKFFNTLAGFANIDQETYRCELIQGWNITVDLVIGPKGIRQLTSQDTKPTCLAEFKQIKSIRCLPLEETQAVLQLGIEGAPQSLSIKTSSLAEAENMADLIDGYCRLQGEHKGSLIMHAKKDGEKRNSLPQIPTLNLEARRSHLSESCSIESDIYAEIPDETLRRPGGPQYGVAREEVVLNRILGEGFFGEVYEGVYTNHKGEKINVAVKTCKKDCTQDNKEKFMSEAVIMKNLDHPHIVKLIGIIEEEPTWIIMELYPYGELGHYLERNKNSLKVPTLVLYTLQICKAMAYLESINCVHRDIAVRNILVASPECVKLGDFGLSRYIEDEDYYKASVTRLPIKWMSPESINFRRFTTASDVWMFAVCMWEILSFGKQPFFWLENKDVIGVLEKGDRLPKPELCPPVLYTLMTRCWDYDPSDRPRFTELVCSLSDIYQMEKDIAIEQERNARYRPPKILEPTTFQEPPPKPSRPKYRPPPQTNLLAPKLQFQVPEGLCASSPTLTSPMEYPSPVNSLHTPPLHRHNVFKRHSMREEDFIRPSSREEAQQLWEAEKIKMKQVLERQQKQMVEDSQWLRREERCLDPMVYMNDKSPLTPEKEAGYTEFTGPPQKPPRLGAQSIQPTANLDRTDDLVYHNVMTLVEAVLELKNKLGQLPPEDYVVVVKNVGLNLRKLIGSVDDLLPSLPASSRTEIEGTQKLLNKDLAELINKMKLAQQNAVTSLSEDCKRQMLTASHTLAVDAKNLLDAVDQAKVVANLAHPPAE
UniProt Q63844, whole entry: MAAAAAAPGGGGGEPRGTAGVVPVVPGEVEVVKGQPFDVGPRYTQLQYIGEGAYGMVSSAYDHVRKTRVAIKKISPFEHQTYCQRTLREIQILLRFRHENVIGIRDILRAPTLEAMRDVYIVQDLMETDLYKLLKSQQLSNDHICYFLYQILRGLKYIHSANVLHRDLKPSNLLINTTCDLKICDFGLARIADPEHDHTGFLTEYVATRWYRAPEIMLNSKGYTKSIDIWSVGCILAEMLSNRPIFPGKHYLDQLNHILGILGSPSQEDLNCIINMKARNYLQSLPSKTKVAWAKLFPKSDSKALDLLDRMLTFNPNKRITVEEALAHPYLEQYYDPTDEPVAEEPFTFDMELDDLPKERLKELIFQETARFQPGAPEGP

CC[C@H](CO)Nc1nc(NCc2ccccc2)c2ncn(C(C)C)c2n1 [Roscovitine, (R)-roscovitine]
Kd [1]: 0.034 µM | Kd (Cyclin-T1 (CCNT1)): 0.046 µM | Kd [2]: 0.09 µM | Kd [3]: 0.501 µM | Kd [4]: 0.602 µM | Kd [5]: 1.53 µM | Kd [6]: 7.37 µM | Kd [7]: 8.32 µM | Kd [8]: 8.55 µM | Kd [9]: 9.6 µM | Kd [10]: 12.4 µM | Kd [11]: 14.7 µM | Kd [12]: 18.9 µM | Kd [13]: 19.8 µM | Kd [14]: 24.9 µM | Kd [15]: 27.8 µM | Kd [16]: 37.5 µM

Source: article PMC6421297, “Novel Mouse Tauopathy Model for Repetitive Mild Traumatic Brain Injury: Evaluation of Long-Term Effects on Cognition and Biomarker Levels After Therapeutic Inhibition of Tau Phosphorylation” (Frontiers in Neurology, 2019)
